Some results come without the dose or concentration used.
Test system: HCT116 cells
Test: RNA sequencing analysis (differentially expressed genes)
Format: cell-based
Conditions: HCT116, 24 h, RNA-Seq, vs DMSO

SMILES: COc1ccc(N(Cc2nc(-c3ccccc3Cl)cs2)C(=O)CCCCCC(=O)NO)cc1 [HR488B]
- downregulated genes: 2246
- upregulated genes: 3105

Source: article PMC10703885 (Cell Death & Disease, 2023)
